From paper doi:10.1101/2020.11.30.403980
Results are given in words; binding and its absence hold for the method and conditions named. Binding seen in cells or lysates may run through a third protein. Binding can be weak; no strength is given. Tags and fused reporters may be left off the sequences shown.

Molecular target: T1, C-terminal GFP-tagged BBS1 (human) (UniProt Q8NFJ9)
T1 sequence: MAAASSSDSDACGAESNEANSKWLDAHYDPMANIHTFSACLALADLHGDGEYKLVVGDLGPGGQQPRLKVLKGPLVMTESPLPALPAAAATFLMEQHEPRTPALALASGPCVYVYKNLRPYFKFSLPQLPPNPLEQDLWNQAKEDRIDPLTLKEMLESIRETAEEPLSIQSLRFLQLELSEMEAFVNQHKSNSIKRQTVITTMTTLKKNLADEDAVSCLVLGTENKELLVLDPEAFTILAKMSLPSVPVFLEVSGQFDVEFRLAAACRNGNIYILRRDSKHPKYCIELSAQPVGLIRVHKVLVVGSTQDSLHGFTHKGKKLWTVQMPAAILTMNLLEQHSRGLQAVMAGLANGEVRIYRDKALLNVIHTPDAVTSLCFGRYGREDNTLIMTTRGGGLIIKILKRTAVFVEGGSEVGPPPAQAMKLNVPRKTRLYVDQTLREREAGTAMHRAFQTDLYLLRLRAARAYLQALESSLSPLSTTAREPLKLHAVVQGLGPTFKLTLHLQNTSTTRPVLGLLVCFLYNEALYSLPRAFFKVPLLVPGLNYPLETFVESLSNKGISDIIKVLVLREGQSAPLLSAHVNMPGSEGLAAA
Assay: co-IP

binding: binds
Substance: dynein (intermediate chain) (human (endogenous in Jurkat))
